Source: paper PMC8699279, “Exercise-Induced Irisin Decreases Inflammation and Improves NAFLD by Competitive Binding with MD2” (Cells, 2021)
These are yes or no findings as the source states them, for the method shown. For part of these data: Binding seen in cells or lysates may run through a third protein. Some entries that bind do so weakly or less than the wild type.

Amino acid sequences for entries named in this document (tags omitted). Residues count along the entry.
UniProt Q9QUK6, residues 26-835: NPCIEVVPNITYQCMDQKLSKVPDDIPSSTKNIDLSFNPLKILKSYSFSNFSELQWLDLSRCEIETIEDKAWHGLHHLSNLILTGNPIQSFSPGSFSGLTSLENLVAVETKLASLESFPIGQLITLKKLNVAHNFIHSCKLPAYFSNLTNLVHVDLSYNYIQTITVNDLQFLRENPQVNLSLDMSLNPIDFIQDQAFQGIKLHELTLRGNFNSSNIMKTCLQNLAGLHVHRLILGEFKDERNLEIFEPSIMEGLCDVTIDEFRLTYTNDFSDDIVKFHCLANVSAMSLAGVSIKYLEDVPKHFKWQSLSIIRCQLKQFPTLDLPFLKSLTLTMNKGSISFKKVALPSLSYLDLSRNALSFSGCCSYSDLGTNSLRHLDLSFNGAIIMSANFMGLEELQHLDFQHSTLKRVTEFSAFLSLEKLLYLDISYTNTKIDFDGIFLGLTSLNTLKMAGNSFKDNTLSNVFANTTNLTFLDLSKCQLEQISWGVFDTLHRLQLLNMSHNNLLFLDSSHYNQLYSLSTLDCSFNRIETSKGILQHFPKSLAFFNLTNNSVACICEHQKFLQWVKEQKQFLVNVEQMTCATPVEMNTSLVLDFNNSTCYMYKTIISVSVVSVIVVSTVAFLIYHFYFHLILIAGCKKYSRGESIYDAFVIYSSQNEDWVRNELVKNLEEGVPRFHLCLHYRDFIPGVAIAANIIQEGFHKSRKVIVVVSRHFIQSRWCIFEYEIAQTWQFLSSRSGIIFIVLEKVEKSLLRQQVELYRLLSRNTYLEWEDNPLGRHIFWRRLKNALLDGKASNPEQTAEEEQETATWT

Tests used:
[1] = biological target: toll-like receptor 4 (endogenous, mouse) (mouse (endogenous in C57BL/6 liver and AML12 cells)) (UniProt Q9QUK6); assay: co-IP; AML12 cell lysates; cells pretreated with recombinant irisin (50 or 100 ng/mL) for 30 min, then 200 μM PA for 2 h
[2] = biological target: toll-like receptor 4 (endogenous, mouse) (mouse (endogenous in C57BL/6 liver and AML12 cells)) (UniProt Q9QUK6); assay: co-IP; mouse liver tissue lysates (RIPA) of NCD, HFD and HFD + exercise mice; precipitating antibody overnight at 4 °C, protein A/G agarose, Western blot
[3] = biological target: toll-like receptor 4 (endogenous, mouse) (mouse (endogenous in C57BL/6 liver and AML12 cells)) (UniProt Q9QUK6); assay: ELISA; anti-TLR4 coated on plates; liver lysates (200 μg/mL) captured; rhMD2 mixed with irisin (0.1, 0.2 and 0.5 μg/mL) added for 2 h at room temperature; detected with anti-MD2; only the binder purified

B1: MD2 (endogenous, mouse) (protein, UniProt Q9JHF9 19-160)
chain: EKQQWFCNSSDAIISYSYCDHLKFPISISSEPCIRLRGTNGFVHVEFIPRGNLKYLYFNLFISVNSIELPKRKEVLCHGHDDDYSFCRALKGETVNTSIPFSFEGILFPKGHYRCVAEAIAGDTEEKLFCLNFTIIHRRDVN
[1]
  binding: binds
[2]
  binding: binds

B2: recombinant human MD2 (protein, UniProt Q9Y6Y9 19-160)
chain: QKQYWVCNSSDASISYTYCDKMQYPISINVNPCIELKRSKGLLHIFYIPRRDLKQLYFNLYITVNTMNLPKRKEVICRGSDDDYSFCRALKGETVNTTISFSFKGIKFSKGKYKCVVEAISGSPEEMLFCLEFVILHQPNSN
[3]
  binding: binds
